In PubChem BioAssay AID2685 (National Center for Advancing Translational Sciences (NCATS), 2010):
Some of the results follow. The main result of the screen is listed elsewhere. These columns were measured beside it and carry no call. The list favours compounds with an active or inconclusive main result. The note in brackets gives the kind of curve behind each potency; many fits are weak.

Assay: qHTS Assay for Lipid Storage Modulators in Drosophila S3 Cells;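 as to cell number change: cells counted by Cell Tracker Red CMTPX staining in the red channel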
Details: BODIPY lipid droplet fluorescence, 18-24 h; for cell number change: measured here: cell count max response, cells fed with added oleic acid
Procedure, shortened: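 Drosophila S3 cells loaded with oleic acid (400 uM, as added) and compounds at several concentrations; lipid droplets imaged by 488-nm laser-scanning cytometry, 500–530 nm intensity and object ratio to cell channel. Percent activity normalized to 20 uM Triacsin C.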

[1] = measured here: cell number channel AC50, cells fed with added oleic acid
[2] = measured here: lipid fluorescence (Fed channel) AC50, cells fed with added oleic acid

Structure (SMILES)	AC50 [1]	cell number change	AC50 [2]
COc1ccc(N2CCN(/C(=N\S(=O)(=O)c3ccc(C)cc3)Nc3nc(C)cc(C)n3)CC2)cc1	0.259 µM [rising, full curve, poor fit]	–	–
Cn1c(=O)c(C(=O)c2ccccc2)nc2ccccc21	–	-15.2%	20.6 µM [falling, single point]
CCc1cc2c(=O)n(CC)c(SC(C)C(=O)Nc3c(C)n(C)n(-c4ccccc4)c3=O)nc2s1 (stereo not drawn)	0.731 µM [rising, partial curve]	43.7%	0.731 µM [rising, partial curve]
CCCCNc1cc(C)nc(N2CCOCC2)n1	11.6 µM [rising, partial curve]	119%	0.366 µM [rising, full curve, poor fit]
COc1cccc(C(C(=O)NC2CCCCC2)N(C(=O)c2csnn2)C2CC2)c1 (stereo not drawn)	–	-3.15%	29.1 µM [falling, single point]
COc1ccc(N(CC(=O)NCc2ccc3c(c2)OCO3)S(C)(=O)=O)cc1OC	6.51 µM [falling, single point]	107%	6.51 µM [falling, partial curve]
CC(C)(C)NC(=O)Nc1ccc(Cn2cc(C(F)(F)F)ccc2=O)cc1	–	27.5%	–
Cc1cc(C)n2nc(CNS(=O)(=O)c3ccc(C)c(C)c3)nc2n1	–	-2.59%	29.1 µM [rising, single point]
FC(F)(F)c1cc(-c2ccco2)nc(NCc2cccs2)n1	–	-26.6%	29.1 µM [falling, single point]
CCOc1ccc(C2NC(=O)Cc3cc(OC)c(OC)cc32)cc1 (stereo not drawn)	–	13.5%	–
Cc1nc(=O)c(-c2ccccc2)c(C)n1CCCCCC(=O)O	0.00517 µM [falling, full curve]	-35%	0.0058 µM [falling, full curve, poor fit]
Cc1ccc(N=Cc2ccc[nH]2)c(O)c1	–	–	2.06 µM [falling, partial curve]
O=C(COC(=O)C1CC2CCCC(C1)C2=O)NNC(=O)c1ccc([N+](=O)[O-])cc1 (stereo not drawn)	–	-1.53%	–
CCOC(=O)CSc1nnc(CSc2nc(N)c3c(C)c(C)sc3n2)n1-c1ccccc1	–	-0.16%	0.411 µM [rising, full curve, poor fit]
COc1ccc(C(C(=O)NC2CCCC2)N(C(=O)CNC(=O)c2ccco2)c2cccnc2)cc1 (stereo not drawn)	–	-3.91%	6.51 µM [falling, single point]
CN(Cc1ccccc1)C(=O)c1ccccc1NC(=O)C1CC1	–	-37.7%	–
O=C(NCc1ccccc1)c1ccc(Cl)c(NC2=NC3CS(=O)(=O)CC3S2)c1 (stereo not drawn)	–	10.1%	–
CC(CCc1ccccc1)NC(=O)Cc1ccc([N+](=O)[O-])cc1 (stereo not drawn)	–	25.7%	18.4 µM [rising, single point]
COC(=O)c1ccc(CS(=O)(=O)c2ccc(F)cc2)o1	–	18.5%	4.11 µM [rising, partial curve, poor fit]
O=C(O)c1ccc(NC2=C(n3nnc4ccccc43)C(=O)c3ccccc3C2=O)cc1	–	-13%	29.1 µM [falling, single point]
Oc1ccc(Cl)cc1CNCC1CCCO1 (stereo not drawn)	–	-13.7%	0.00651 µM [falling, full curve, poor fit]
COc1ccccc1N1CCN(C(=O)CSc2nnc(-c3ccoc3C)o2)CC1	–	-1.42%	–

Structure (SMILES)	AC50 [1]	cell number change	AC50 [2]
CC1Cc2ccccc2N1c1ncnc2c1nnn2Cc1ccccc1Cl (stereo not drawn)	–	24.3%	9.2 µM [rising, partial curve]
CCOC(=O)c1sc(C)c2c1NC(c1ccc(Cl)cc1)NC2=O (stereo not drawn)	–	-29.4%	0.731 µM [rising, full curve, poor fit]
Cc1cc(N2CCN(C(=O)Nc3ccccc3C#N)CC2)c2ccccc2n1	–	0.824%	–
CCc1cccc2c1NC(=O)C2(O)N1CCCC(C)C1 (stereo not drawn)	–	-1.17%	–
CCOC(=O)c1ccc(NC(=S)NC2CCCC2)cc1	–	-8.52%	–
COC(=O)c1ccc(NC(=O)COC(=O)CCC2CCCC2)cc1	–	-2.14%	0.291 µM [rising, full curve, poor fit]
COc1cc(OC)cc(C(=O)Nc2ccc([N+](=O)[O-])cn2)c1	–	-10.4%	29.1 µM [rising, single point]
CC(C)(C)c1ccc(S(=O)(=O)N2CCN(CC(=O)N3CC(=O)Nc4ccccc43)CC2)cc1	0.731 µM [falling, single point]	9.59%	–
CCOC(=O)N1CCN(S(=O)(=O)c2cc(OCC)ccc2OCC)CC1	–	7.83%	–
COc1cc(CNc2ccc3[nH]c(=O)[nH]c3c2)ccc1OCc1ccc(Cl)cc1	–	-11.8%	23.1 µM [falling, single point]
COc1ccccc1NC(=O)CSc1nnc(NC(=O)c2ccco2)s1	18.4 µM [rising, single point]	31.3%	14.6 µM [rising, single point]
CC(C)Nc1nnc(SCC(=O)NCc2ccc3c(c2)OCO3)s1	0.82 µM [rising, full curve, poor fit]	58.3%	–
Nc1cc(=O)[nH]c(SCC(=O)Nc2cccnc2Cl)n1	–	23.8%	0.206 µM [falling, single point]
COc1cccc(CSc2nc3ccccc3cc2C=O)c1	0.0411 µM [falling, partial curve, poor fit]	-45.7%	–
C/C(=C\c1ccccc1)C(=O)Nc1ccc(S(=O)(=O)Nc2ncccn2)cc1	4.61 µM [falling, single point]	-2.49%	4.61 µM [falling, partial curve]
CC(C)c1cc(CNC(=O)CCc2nnc(CCCCc3ccccc3)o2)on1	–	-18.2%	0.0058 µM [falling, full curve, poor fit]
CCOCCCNCc1ccc(OC)cc1	2.31 µM [falling, full curve]	-35.8%	18.4 µM [falling, partial curve]
CN(C)S(=O)(=O)c1ccc(NC(=O)N2CCOCC2)cc1	–	-19.7%	29.1 µM [falling, single point]
O=C(Cc1ccccc1)Nc1cc(Cl)ccc1Sc1ccccc1	–	22.3%	20.6 µM [rising, partial curve]
COCCn1c(=S)[nH]c2cc(C(=O)NCCc3ccc(OC)c(OC)c3)ccc2c1=O	–	24.4%	–
COC(=O)c1cn(C(=O)c2cc(OC)cc(OC)c2)c2ccccc12	–	6.76%	–
CCOC(=O)c1ccc(NC(=O)CN2C(=O)CSC(C)C2=O)cc1 (stereo not drawn)	–	5.14%	16.4 µM [rising, partial curve, poor fit]

Structure (SMILES)	AC50 [1]	cell number change	AC50 [2]
Nc1ccc(Nc2nc3ccccc3[nH]2)cc1	16.4 µM [falling, single point]	-45.8%	–
CS(=O)(=O)N(CC(=O)O)Cc1cccc(CN(CC(=O)O)S(C)(=O)=O)c1	–	0.299%	32.6 µM [falling, single point]
CCC1CCC(C(=O)NC(C(=O)NCCN2CCOCC2)C(C)C)CC1 (stereo not drawn)	–	21.6%	–
CCOc1ccccc1CNC(=O)C1CCCN(c2ncnc3c2nc2n3CCCCC2)C1 (stereo not drawn)	–	58.8%	29.1 µM [falling, partial curve]
CCOc1ccc2nc(N(Cc3ccccc3)C(=O)CCNC(C)=O)sc2c1	–	-12.7%	3.66 µM [rising, single point]
COc1cccc2cc(-c3ccnc(N)n3)oc12	6.51 µM [rising, partial curve, poor fit]	–	6.51 µM [rising, partial curve, poor fit]
CC(C)(C)C(=O)NC(=S)Nc1ccccc1C(N)=O	–	7.86%	20.6 µM [rising, single point]
CCOC(=O)c1sc2nc(C)nc(NCc3ccc(F)cc3)c2c1C	–	–	3.16 µM [rising, partial curve]
Cc1cc(F)ccc1S(=O)(=O)Nc1ccccc1C(=O)Nc1ncn[nH]1	–	2.73%	6.51 µM [rising, single point]
Cc1ccc(NS(=O)(=O)c2cc3[nH]c(=O)c(=O)[nH]c3cc2C)c(C)c1	–	2.88%	–
Cc1ccc(NCc2nnc(SCCN3CCCCC3)n2CC2CCCO2)cc1Cl (stereo not drawn)	–	15.4%	0.13 µM [falling, full curve, poor fit]
Cc1cc(=O)[nH]c(N/N=C/c2c(C)oc3ccccc23)n1	–	-1.5%	0.461 µM [rising, full curve]
COc1cc2c(cc1NC(=O)c1cccc(Br)c1)CCCC2	–	-16.9%	–
C(=Nc1cccc2c(N=Cc3ccco3)cccc12)c1ccco1	1.84 µM [rising, partial curve]	23.6%	–
COc1ccc(CC(=O)NC2=NCCS2)cc1	–	–	29.1 µM [rising, single point]
CC(C)OP(=O)(c1ccc(N(C)C)cc1)C(O)c1ccccc1 (stereo not drawn)	–	-15.6%	–
Cc1ccccc1Nc1nnc(SCC(=O)c2cc3ccccc3o2)s1	–	–	1.46 µM [rising, partial curve]
CCCC(C)NC(=O)c1ccccc1SC (stereo not drawn)	–	-11.8%	0.259 µM [falling, full curve, poor fit]
C=CCN(CC=C)C(=O)CN1C(=O)NC(Cc2c[nH]c3ccccc23)C1=O (stereo not drawn)	29.1 µM [rising, single point]	112%	9.2 µM [rising, partial curve]
O=C(COC(=O)Cc1ccccc1F)Nc1ccccc1[N+](=O)[O-]	2.31 µM [falling, partial curve]	6.63%	2.91 µM [falling, partial curve]
Cc1nnc(SCC(=O)NC(C)(C)C)n1C1CCCCC1	–	8.31%	0.092 µM [falling, full curve]

Reformatted as a markdown table: five of the compounds above

| Structure (SMILES) | AC50 [1] | cell number change | AC50 [2] |
| --- | --- | --- | --- |
| CS(=O)(=O)N(CC(=O)O)Cc1cccc(CN(CC(=O)O)S(C)(=O)=O)c1 | – | 0.299% | 32.6 µM [falling, single point] |
| CCC1CCC(C(=O)NC(C(=O)NCCN2CCOCC2)C(C)C)CC1 (stereo not drawn) | – | 21.6% | – |
| CC(C)(C)C(=O)NC(=S)Nc1ccccc1C(N)=O | – | 7.86% | 20.6 µM [rising, single point] |
| CC(C)OP(=O)(c1ccc(N(C)C)cc1)C(O)c1ccccc1 (stereo not drawn) | – | -15.6% | – |
| Cc1ccccc1Nc1nnc(SCC(=O)c2cc3ccccc3o2)s1 | – | – | 1.46 µM [rising, partial curve] |
